Results reported in PubChem BioAssay AID743275 (Broad Institute, 2014).
The shares of active, inactive and inconclusive entries below differ from those in the screen. Activity calls are given as the source filed them.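 How the source made its calls: active means compounds cutting cell count with a fitted half-maximal dose below twice the top dose, in every run; inconclusive means runs disagree, flat partial cut, or poor curve fit; inactive means every run called inactive.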

assay: growth inhibition of CAPAN-1 cells, dose response, cell-based, imaging, dry powder, set 2 (AID 743275); conditions: CAPAN-1 cell number, Hoechst imaging, 14 days; at 50 µM (top of the series)

| SMILES | activity change, negative = inhibition |
| --- | --- |
| COc1ccccc1Nc1nc(NCCCO)c2ccccc2n1 | inconclusive: -93.8% |
| CCCNc1nc(Cl)nc(NCc2cccnc2)n1 | inactive: 4.33% |
| CCN1CCN(CCCNC(=O)C2CCN(c3nnc(-n4c(C)ccc4C)s3)CC2)CC1 | inconclusive: -48.2% |
| CN(C)CCCNc1ncnc2oc(-c3ccccc3)c(-c3ccccc3)c12 | inconclusive: -18% |
| Cc1ccc(C(=O)c2oc3ccc(Cl)cc3c2NC(=O)CN2CCN(C)CC2)cc1 | inconclusive: 12% |
| c1ccc(-c2oc3ncnc(NCCCN4CCOCC4)c3c2-c2ccccc2)cc1 | inconclusive: 7.11% |
| CCN1CCc2c(sc(NC(=O)c3ccc(OC)cc3OC)c2C(N)=O)C1 | inconclusive: -97.5% |
| CCN1CCN(c2nc(Nc3ccc(NC(C)=O)cc3)nc(Nc3ccc(NC(C)=O)cc3)n2)CC1 | inconclusive: -96.2% |
| COc1cc2nc(N(CCCN(C)C)C(=O)c3ccc(S(=O)(=O)N4CCc5ccccc54)cc3)sc2cc1OC | inconclusive: -25.2% |
| CN1CCN(c2nc(Nc3ccc(F)cc3)nc(Nc3ccc(F)cc3)n2)CC1 | inconclusive: -99.7% |
| Cc1cc(N2CCN(C)CC2)nc2ccc(NC(=S)NCCCN3CCc4ccccc4C3)cc12 | inactive: 5.99% |
| COc1ccc(-c2oc3ncnc(NCCCN(C)C)c3c2-c2ccc(OC)cc2)cc1 | inconclusive: -81.5% |
| CN(C)CCCN(C(=O)c1nc2ccccc2s1)c1nc2ccc(F)cc2s1 | inactive: -18.3% |
| CCCCN(CC)CCNC(=O)CCC(=O)Nc1ccc2nc(N3CCN(C)CC3)cc(C)c2c1 | inconclusive: -66.9% |
| CN(C)c1ccc(Nc2nc(N)c3ccccc3n2)cc1 | inactive: -26.6% |
| Cc1cc(C)n(-c2nc(NCCN(C)C)c3c4c(sc3n2)CCCC4)n1 | inconclusive: -103% |
| CN1CCCN(c2cc(-c3ccccc3)nc3ccnn23)CC1 | inactive: -7.07% |
| CCCN(CCC)CCCNC(=S)Nc1ccc2nc(N3CCN(C)CC3)cc(C)c2c1 | inconclusive: -97.6% |
| COc1nc(NCc2ccccc2)nc(NCc2cccnc2)n1 | inactive: -3.86% |
| c1ccc(-c2cc(N3CCC(N4CCCC4)CC3)n3nccc3n2)cc1 | inactive: 15.5% |
| COc1ccc(-c2nc(C(=O)NCCCN3CCOCC3)cc3c2[nH]c2ccccc23)cc1OC | inconclusive: -102% |

Reformatted as tab-separated lines: two of the compounds above.
SMILES	activity change, negative = inhibition
CCCNc1nc(Cl)nc(NCc2cccnc2)n1	inactive: 4.33%
COc1ccc(-c2nc(C(=O)NCCCN3CCOCC3)cc3c2[nH]c2ccccc23)cc1OC	inconclusive: -102%
